Here are results for two substances from paper PMC7707837.

Amino acid sequences for entries named in this document (tags omitted).
UniProt Q96AP0: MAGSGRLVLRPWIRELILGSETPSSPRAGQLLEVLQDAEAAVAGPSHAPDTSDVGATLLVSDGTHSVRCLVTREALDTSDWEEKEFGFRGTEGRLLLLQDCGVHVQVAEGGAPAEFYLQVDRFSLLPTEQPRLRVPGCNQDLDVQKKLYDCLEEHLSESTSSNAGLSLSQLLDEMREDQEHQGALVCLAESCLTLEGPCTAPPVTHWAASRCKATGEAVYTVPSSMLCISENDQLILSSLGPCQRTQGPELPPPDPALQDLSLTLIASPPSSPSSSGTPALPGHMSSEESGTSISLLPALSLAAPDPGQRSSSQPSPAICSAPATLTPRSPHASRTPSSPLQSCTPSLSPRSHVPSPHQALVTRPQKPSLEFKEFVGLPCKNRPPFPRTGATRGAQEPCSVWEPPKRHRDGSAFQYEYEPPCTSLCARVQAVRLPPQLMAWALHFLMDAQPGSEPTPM
UniProt P54274: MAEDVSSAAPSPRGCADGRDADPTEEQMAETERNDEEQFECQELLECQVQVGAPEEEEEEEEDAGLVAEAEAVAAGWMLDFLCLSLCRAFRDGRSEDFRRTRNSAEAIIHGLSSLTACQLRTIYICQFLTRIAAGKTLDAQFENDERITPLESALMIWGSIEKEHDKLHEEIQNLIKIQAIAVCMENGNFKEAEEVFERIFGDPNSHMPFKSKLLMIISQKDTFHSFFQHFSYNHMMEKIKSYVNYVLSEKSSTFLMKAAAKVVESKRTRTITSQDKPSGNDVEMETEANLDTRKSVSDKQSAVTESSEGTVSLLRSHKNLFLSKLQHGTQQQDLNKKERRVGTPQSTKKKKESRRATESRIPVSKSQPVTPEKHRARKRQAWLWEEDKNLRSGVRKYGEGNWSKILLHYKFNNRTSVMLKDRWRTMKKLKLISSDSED

No constants are given. Whether binding was seen depends on the method and setting. Binding seen in cells or lysates may run through a third protein. Some results given as binding are weak or reduced against the parent protein; the word gives no strength. Where a sequence is shown, tags or fusion partners need not be part of it.

This assay has as its target T1, Flag-(HA)2-tagged wild-type TIN2 (human) (UniProt Q9BSI4).
T1 sequence: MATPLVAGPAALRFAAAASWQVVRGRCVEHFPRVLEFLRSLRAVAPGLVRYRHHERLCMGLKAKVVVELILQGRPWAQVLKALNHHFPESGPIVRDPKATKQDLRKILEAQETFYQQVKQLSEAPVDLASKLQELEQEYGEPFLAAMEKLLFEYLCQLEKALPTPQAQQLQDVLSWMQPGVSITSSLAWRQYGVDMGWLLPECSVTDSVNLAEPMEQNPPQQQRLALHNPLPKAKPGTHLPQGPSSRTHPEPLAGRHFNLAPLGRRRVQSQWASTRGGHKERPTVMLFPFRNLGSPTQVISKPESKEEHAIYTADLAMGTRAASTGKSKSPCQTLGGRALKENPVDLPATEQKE
As to the kind of experiment: co-IP; 293T cells co-transfected with Flag-(HA)2-TIN2 versions and Myc-tagged TRF1 or TPP1; lysates diluted to 200 mM NaCl; HA-tagged TIN2 precipitated with anti-HA agarose beads, 2 hr at 4°C; blots with HA and Myc antibodies.

With “Myc-tagged TPP1 (from UniProt Q96AP0 1-458)”, the binding result was “binds”.
“Myc-tagged TRF1 (from UniProt P54274 1-439)”: the binding result was “binds”.
